# Screening data, single-dose tests

The chains behind the UniProt entries cited, without tags or fusion partners. Residues count along the entry.
UniProt Q4DA54, 1-478: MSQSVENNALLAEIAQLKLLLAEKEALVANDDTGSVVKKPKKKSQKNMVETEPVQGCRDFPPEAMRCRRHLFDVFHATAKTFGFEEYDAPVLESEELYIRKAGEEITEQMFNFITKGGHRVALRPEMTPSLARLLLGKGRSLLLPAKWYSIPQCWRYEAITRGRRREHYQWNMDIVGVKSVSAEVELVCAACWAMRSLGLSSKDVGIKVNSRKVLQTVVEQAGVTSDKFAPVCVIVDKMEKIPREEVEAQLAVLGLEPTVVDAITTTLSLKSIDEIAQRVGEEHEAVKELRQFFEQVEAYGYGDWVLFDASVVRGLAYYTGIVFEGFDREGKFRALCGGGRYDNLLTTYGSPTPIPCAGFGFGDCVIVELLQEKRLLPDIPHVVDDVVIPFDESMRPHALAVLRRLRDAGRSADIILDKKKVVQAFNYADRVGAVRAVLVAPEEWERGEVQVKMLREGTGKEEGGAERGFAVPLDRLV
UniProt A4I591, 1-473: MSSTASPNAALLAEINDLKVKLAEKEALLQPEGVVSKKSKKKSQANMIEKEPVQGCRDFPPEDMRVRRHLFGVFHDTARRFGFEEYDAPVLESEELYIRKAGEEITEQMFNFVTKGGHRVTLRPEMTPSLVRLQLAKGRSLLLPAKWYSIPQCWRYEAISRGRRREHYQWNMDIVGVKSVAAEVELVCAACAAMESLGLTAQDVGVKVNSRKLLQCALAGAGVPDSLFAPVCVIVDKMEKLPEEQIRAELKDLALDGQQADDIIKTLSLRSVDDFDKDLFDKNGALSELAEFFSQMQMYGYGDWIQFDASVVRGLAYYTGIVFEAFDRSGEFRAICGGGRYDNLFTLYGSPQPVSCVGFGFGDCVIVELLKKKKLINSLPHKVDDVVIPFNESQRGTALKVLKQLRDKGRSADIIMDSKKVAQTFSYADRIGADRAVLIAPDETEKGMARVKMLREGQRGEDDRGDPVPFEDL
UniProt Q8IDJ8, 1-583: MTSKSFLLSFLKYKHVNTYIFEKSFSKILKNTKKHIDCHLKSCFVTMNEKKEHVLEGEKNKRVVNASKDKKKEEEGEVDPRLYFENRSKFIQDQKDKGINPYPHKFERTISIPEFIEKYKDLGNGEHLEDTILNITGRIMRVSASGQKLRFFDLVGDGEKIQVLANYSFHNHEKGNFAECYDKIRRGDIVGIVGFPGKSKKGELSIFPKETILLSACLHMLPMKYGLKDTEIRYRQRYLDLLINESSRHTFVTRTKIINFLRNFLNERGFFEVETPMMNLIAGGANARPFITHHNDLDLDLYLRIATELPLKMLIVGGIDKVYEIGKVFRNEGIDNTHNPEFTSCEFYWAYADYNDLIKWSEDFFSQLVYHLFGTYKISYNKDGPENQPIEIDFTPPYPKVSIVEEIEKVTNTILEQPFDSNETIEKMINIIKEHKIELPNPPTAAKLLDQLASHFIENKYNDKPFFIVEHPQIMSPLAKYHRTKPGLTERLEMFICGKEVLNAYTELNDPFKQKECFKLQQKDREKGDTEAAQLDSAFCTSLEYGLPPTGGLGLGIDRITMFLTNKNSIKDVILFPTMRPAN
UniProt P9WNZ1, whole entry: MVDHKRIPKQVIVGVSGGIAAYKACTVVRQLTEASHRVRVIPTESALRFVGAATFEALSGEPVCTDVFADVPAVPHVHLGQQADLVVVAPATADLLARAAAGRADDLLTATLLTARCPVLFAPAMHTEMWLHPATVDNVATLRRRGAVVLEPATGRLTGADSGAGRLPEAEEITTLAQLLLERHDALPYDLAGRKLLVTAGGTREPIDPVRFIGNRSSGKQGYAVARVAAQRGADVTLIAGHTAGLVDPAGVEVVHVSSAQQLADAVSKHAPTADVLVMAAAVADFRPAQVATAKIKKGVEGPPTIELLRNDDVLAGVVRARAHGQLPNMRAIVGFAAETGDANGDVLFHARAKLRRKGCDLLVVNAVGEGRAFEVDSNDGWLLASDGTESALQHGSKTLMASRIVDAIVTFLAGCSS

From ChEMBL document CHEMBL3988442, “University of Dundee, Small-Polar-MMV Screening Library” (2021).

Values are the deposited “Percent Effect”, in %.
The record does not define 0% and 100%; most values in the screen are far below 50% and negative numbers occur (in some assays of this library far below -100).
The compounds are a random part of those screened.
A dash means the value is not listed here; it may have been measured.

TcHisRS: 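Histidine-tRNA ligase, Trypanosoma cruzi CL Brener (UniProt Q4DA54). Enzyme assay of histidyl-tRNA synthetase; the read-out is not stated. Concentration: 30 µM. Direction is inferred from retests: higher values go with stronger inhibition. Of about 69,000 compounds tested this way, about 31 (0.045%) reached 50% or more in at least one test.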
LiHisRS: 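Enzyme assay of histidyl-tRNA synthetase; the read-out is not stated. Target: Histidine-tRNA ligase, Leishmania infantum (UniProt A4I591). Tested at 30 µM. Direction is inferred from retests: higher values go with stronger inhibition. The assay is labelled LdHisRS but filed under L. infantum. About 69,000 compounds were tested under these conditions; 0.6% (about 410) showed 50% or more at least once.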
Toxoplasma: 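Assay of Toxoplasma gondii numbers, read through their beta-galactosidase reporter with a colour substrate. Compounds at 10 µM. Higher reads as fewer parasites (inferred from which compounds were picked for retests). Size under these conditions: about 67,000 compounds, about 260 of them at 50% or above in at least one test.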
PfKRS1: 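Lysine-tRNA ligase, Plasmodium falciparum 3D7 (UniProt Q8IDJ8). Enzyme assay of the cytosolic lysyl-tRNA synthetase in 384-well plates, read by luminescence. Compounds at 30 µM. Higher reads as stronger inhibition, judged from the few compounds that gave an IC50. Of about 69,000 compounds tested this way, about 49 (0.071%) reached 50% or more in at least one test.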
CoaBC: 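Enzyme assay of CoaBC with a phosphate dye (Biomol Green) read at 650 nm. Target: Coenzyme A biosynthesis protein CoaBC, Mycobacterium tuberculosis (UniProt P9WNZ1). Concentration: 30 µM. Higher reads as stronger inhibition, judged from the few compounds that gave an IC50. Most strong results did not repeat in a second test. Size under these conditions: about 67,000 compounds, about 40 of them at 50% or above in at least one test.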

SMILES	TcHisRS	LiHisRS	Toxoplasma	PfKRS1	CoaBC
O=C1N(Cc2cccnc2)CCC12CCCN(c1ncc(F)cn1)C2 (centres undefined)	5.556	7.547	-	2.897	1.463
CC(=O)N1CCCCC1c1cc(C(=O)N2CCOCC2)[nH]n1 (centres undefined)	3.784	5.556	4.548	2.618	-8.056
Cc1sc(-c2ccco2)nc1C(=O)N1CCCC1Cn1cccn1 (centres undefined)	3.152	12.28	5.92	-0.8954	1.118
CCc1c(C)nc(-n2nc(C3CC3)cc2NC(C)=O)[nH]c1=O	7.273	2.597	-1.935	5.185	2.299
O=C(O)C(F)(F)F.[H][C@@]12CCN(CC3CCOCC3)C[C@@]1([H])O[C@@H](C(=O)N1CCC(C)CC1)C2	-	-	1.733	-	-
N#Cc1cnc(N2CCC3(CC2)OCCO3)nc1N	11.36	13.86	-1.64	4.223	4.369
NC(=O)C1CCN(Cc2csc(-c3ncccn3)n2)CC1	3.207	9.174	-2.061	-0.6866	-2.117
CCOc1ccc(CN2CCC(c3[nH]ncc3C)C2)cc1CO (centres undefined)	4.545	11.59	-10.23	1.323	-8.147
CCc1ccc2c(c1)C(CCNC(=O)CCc1ccsc1)C(=O)N2 (centres undefined)	8.38	10.53	10.27	5.755	3.629
COc1ccc(-c2nc3c([nH]2)CCCNC3=O)cc1OC	8.081	3.191	23.32	0.09386	1.684
O=C(O)C(F)(F)F.O=C(O)C(F)(F)F.[H][C@@]12CN(CC3CC3)CCC[C@]1(C(=O)N(C)C)CN(c1ccccn1)C2	-	-	12.3	-	-
Cc1cc(-c2cnc(N3CCCC(C)C3)nc2-c2cccnc2C)on1 (centres undefined)	2.703	5.556	-	-3.008	0.8333
CCCc1noc(CN2CCC(c3ccnn3CCO)CC2)n1	2.305	3.571	-18.16	0.2671	1.591
CN(C)c1ncnc2c1CCN(C(=O)c1cccnc1)CC2	11.82	8.824	-	-3.622	3.553
CCCn1nc2c(cc1=O)CN(Cc1nc(C)c3ccccc3n1)CC2	17.49	27.06	9.222	4.332	4.822
NCC1CCCN(c2nc(-c3ccccc3)nc3c2CCNCC3)C1 (centres undefined)	24.49	24.19	-8.528	2.646	8.606
Cc1c[nH]c(CN(C)c2nc(C3CCCC3)nc3c2cnn3C)n1	5.691	14.42	1.279	3.553	-0.8439
CNc1cncc(C2CCCN2C(=O)Cn2c(=O)oc3ccccc32)n1 (centres undefined)	3.297	7.246	-12.38	0.007954	4.369
CC(Cn1cccn1)NC(=O)NCCc1cccs1 (centres undefined)	6.215	13.79	-19.16	0.4762	2.872
Cc1nc(C)c(CC(=O)N2C[C@@H]3CC[C@H](C2)N(CC2CCC2)C3)c(=O)[nH]1	-2.542	18.87	-	5.191	7.93
COc1cc(C)nc(N2CCN(C(=O)c3cc(Cl)c[nH]3)CC2)n1	-1.02	8.065	9.799	4.298	3.515
Clc1ccc(OCCN2CCN(CCn3cncn3)CC2)cc1	-3.333	9.615	-3.347	0.3006	1.493
O=C(COc1coc(CN2CCCCC2)cc1=O)c1ccc(Cl)cc1	-1026	18.42	-4.221	5.365	3.291
N#CCCN(Cc1cccnc1)C(=O)c1ccn(-c2ccccc2)n1	3.804	21.33	-2.308	3.066	7.025
COCCN(Cc1sccc1C)C(=O)c1c(O)cccc1F	0.5291	4	8.063	2.881	5.765
Cc1cccc(C(=O)N(C)CC(=O)N2CCCC2)c1C	11.31	13.98	-6.663	4.629	9.135
COCCCN(C)C(=O)Cn1cccc(OC)c1=O	2.941	107.2	-0.1165	6.64	0
O=C(O)c1ccc(N2CCC(Cc3ccccc3)CC2)nn1	4.124	19.13	18.02	6.032	-2.748
[H][C@@]12COC[C@]1(COc1nccc(C)n1)CN(C(=O)c1ncccn1)C2	-	-	11.14	-	-
Cc1c(F)cccc1NC(=O)N(C(C)CS(C)(=O)=O)C1CC1 (centres undefined)	5.172	4.386	-33.96	3.378	5.305
Cc1cn2c(n1)CCC(NC(=O)CCC(F)(F)F)C2 (centres undefined)	-0.7576	13.64	-8.223	4.428	6.177
CCn1cnnc1CNC(=O)N1CCOC(c2ccc(Cl)cc2)C1 (centres undefined)	9.877	17.65	21.46	4.458	2.331